Primary screen of a compound library

Measurements from “University of Dundee, Small-Polar-MMV Screening Library” (2021), ChEMBL document CHEMBL3988442.

Each number is a percent effect as filed. The controls that fix the scale are not given in the record; negative values are as filed. The compounds are a random part of those screened.

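Whole-parasite assay of Trypanosoma brucei over 72 hours; the read-out is not stated. Concentration: 10 µM. Higher reads as stronger inhibition (inferred: compounds with an IC50 in retests scored well above the rest). Values scatter widely below zero; nearly all retest evidence comes from the higher of the two concentrations used. Of about 2,700 compounds tested this way, about 14 (0.51%) reached 50% or more in at least one test.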

Result for CCOc1ncccc1C(=O)N1CCCC(c2nncn2C)C1 (stereo not drawn) was -43.93%.
Result for Cn1ccc(CN2CCN(CC3CC3)CC2)cc1=O was -29.86%.
Result for Cc1cnn(CC2CCCN2CC(=O)NC2CCN(C3CC3)CC2)c1 (stereo not drawn) was 0.695%.
Result for CCOc1cccc(C(C)NCc2c(C)nn(C)c2N(C)C)c1 (stereo not drawn) was -45.56%.
Result for Clc1snnc1CN1CCCCC1Cn1cccn1 (stereo not drawn) was -34.11%.
Result for CC(C)(C)c1ncc(CNCC2CCCN2c2cccnn2)s1 (stereo not drawn) was -27.41%.
Result for CCn1ccnc1CN1CCN(CC(O)c2ccc(OC)cc2)CC1 (stereo not drawn) was -64.16%.
Result for CCn1c(C(=O)N2CCN(CC[S+](C)[O-])CC2)cc2ccccc21 (stereo not drawn) was -31.07%.
Result for N#Cc1ccc(S(=O)(=O)N2CSCC2C(=O)NCC(F)(F)F)cc1 (stereo not drawn) was -0.3906%.
Result for COc1cc(CNCCn2cc(C)cn2)cc2c1OCCO2 was -30.89%.
Result for OC(CNCCn1cccn1)c1cccc(Br)c1 (stereo not drawn) was -26.33%.
Result for CN(C)c1cc(C(=O)N2CCCCC2CNS(C)(=O)=O)ccn1 (stereo not drawn) was -54.55%.
Result for CCOc1ncccc1NC(=O)N1CCN(c2ccc(O)cc2)CC1 was -28.08%.
Result for Cc1ccc(S(=O)(=O)N2CSCC2C(=O)NCC(F)(F)F)cc1C (stereo not drawn) was -8.69%.
Result for COc1cccc(CC(=O)N2CCC(NCc3c[nH]nc3C)CC2)c1 was -76.26%.
Result for CC(C)c1noc(C(C)N2CCN(Cc3noc(C(C)(C)C)n3)CC2)n1 (stereo not drawn) was -53.79%.
Result for CCOCC(O)CN1CCN(C(=O)c2cc(C)ccc2F)CC1 (stereo not drawn) was -37.15%.
Result for CN(C)c1ccc(C(=O)N2CCCC2c2noc(C3CC3)n2)nn1 (stereo not drawn) was -80.61%.
Result for Cc1ccc(-c2cc(C(=O)NCCN3CCCS3(=O)=O)[nH]n2)o1 was -8.537%.
Result for Cn1ccnc1CN1CCN(CC(O)c2ccccc2)CC1 (stereo not drawn) was -47.84%.
Result for Cc1cc(C(=O)NCc2ccc(N3CCCC(C(N)=O)C3)cc2)on1 (stereo not drawn) was -13.18%.
Result for Cc1ccc(CNC(=O)N2CCCC(NS(C)(=O)=O)C2)cc1 (stereo not drawn) was -45.58%.
Result for COc1cc(Cl)ccc1C(=O)N1CCCC(n2nc(C)nc2C)C1 (stereo not drawn) was -45.41%.
Result for CCOCC(O)CN1CCN(C(=O)c2ccc(OC)cc2)CC1 (stereo not drawn) was -46.59%.
Result for CC(C)c1n[nH]c(C2CN(CCc3cccs3)CCO2)n1 (stereo not drawn) was -28.56%.
Result for CCOC(=O)c1sc2ccsc2c1CNS(C)(=O)=O was -12.87%.
Result for CN(CC(=O)N1CCCCC1c1nccs1)C1CC1 (stereo not drawn) was -33.78%.
Result for Cc1nc(C)n(CC2CCCN(CC(=O)Nc3cc(C)on3)C2)n1 (stereo not drawn) was -76.46%.
Result for CCc1n[nH]c(C2CN(C(=O)c3ncoc3CC)CCO2)n1 (stereo not drawn) was -48.87%.
Result for CC(=O)N(Cc1noc(C)n1)C1CCN(Cc2ccccn2)C1 (stereo not drawn) was -51.82%.
Result for COc1c(C2CCCN2C(=O)c2c(C)noc2C)c(C)nn1C (stereo not drawn) was -59.48%.
Result for CCc1noc(C(C)N2CCN(CCOCC(F)(F)F)CC2)n1 (stereo not drawn) was -67.29%.
Result for Cc1noc(C(C)C)c1C(=O)NCCC(=O)N1CCCCC1 was -35.22%.
Result for CCOc1ccccc1CNC(=O)N1CCC(Cc2cnn(C)c2)C1 (stereo not drawn) was -58.85%.
Result for CC(OCc1ccccc1)C(=O)NCc1ccc(N(C)C)cc1 (stereo not drawn) was -25.9%.
Result for Cc1cnn(CC2CCCCN2C(=O)c2ccc(CN(C)C)cc2)c1 (stereo not drawn) was -47.08%.
Result for Cc1nccn1C1CCCN(C(=O)c2cccc(Cn3ccnc3)c2)C1 (stereo not drawn) was -35.41%.
Result for c1ccc2c(N3CCCCC3Cn3cccn3)ncnc2c1 (stereo not drawn) was -18.94%.
Result for COc1cc(CNC2CCc3nc(C)nn3C2)cc2c1OCO2 (stereo not drawn) was -44.1%.
Result for Cc1cnn(CC2CN(CCCc3nc4ccccc4o3)CCO2)c1 (stereo not drawn) was -29.8%.
Result for COc1cc2ccccc2cc1C(=O)N1CCCC(c2nncn2C)C1 (stereo not drawn) was -43.41%.

For reference, 5 entries once more:

{"structure": "CC(C)(C)c1ncc(CNCC2CCCN2c2cccnn2)s1", "stereo": "stereo not drawn", "effect": -27.41}
{"structure": "OC(CNCCn1cccn1)c1cccc(Br)c1", "stereo": "stereo not drawn", "effect": -26.33}
{"structure": "COc1cc(Cl)ccc1C(=O)N1CCCC(n2nc(C)nc2C)C1", "stereo": "stereo not drawn", "effect": -45.41}
{"structure": "c1ccc2c(N3CCCCC3Cn3cccn3)ncnc2c1", "stereo": "stereo not drawn", "effect": -18.94}
{"structure": "CCn1ccnc1CN1CCN(CC(O)c2ccc(OC)cc2)CC1", "stereo": "stereo not drawn", "effect": -64.16}